Patent US11013715B2, “Nanoemulsion hydrophobic substances” (Vertosa, Inc., priority 2018, dated 2021)
Some of these results come from one statement about several compounds together.

Assay: Emulsion droplet average size by Dynamic Light Scattering
Format: physicochemical
Details: named surfactant used in place of Tween 20/Tween 80 with sunflower lecithin
Method: Droplet size change was monitored by DLS time wise.
Sometimes, measuring concentrated nano-emulsion (>10 mg/g) by Dynamic Light Scattering could have misleading data. Since at higher concentration, the emulsion droplets pack close to each other and may generate unreal scattering pattern. […] While the nanosized droplets are a preferred embodiment of the instant application, larger sized droplets are contemplated as well. Sometimes, larger size emulsion is generated by design to achieve desirable effects.
As is generally known in the art, droplet sizes and their distribution may affect the human feeling on flavor. On one side, nano-size can amplify or even alter the taste, something tastes plain at bulk may taste bitter or sour in nano-scale. On the other side, taste buds on tongue tend to have different time reactions to different sizes of particles. The smaller droplets can quickly absorb at the gap of the tasting buds, thus blocking the touching/feeling from bigger droplets. The droplet size can be well controlled by how much energy is put into the liquid system, which can be controlled either by amplitude % of the sonicator or by how long the liquid is being sonicated at certain amplitude %.
The sonicator continuously calibrates itself to ensure consistent output. A commercially available sonicator may be used to make the compositions disclosed herein. The wattage of such a sonicator may vary from 250 W to about 800 W, and more preferably between about 350 W to about 650 W, and most preferably between 450 W to about 550 W. The output energy depends on the viscosity of the emulsion and also temperature. […] Processing amplitude are adjustable, and it is within a linear relation with intensity. And process time can also be adjustable, which will determine total input energy under certain intensity. […]
1 g of cannabis and 5 g of the Formula 1 are added to a 100 ml beaker, and mechanically stirred under controlled heat (<60° C.), until it is well mixed. […] Water is added to the mixture, the amount of water is determined by the final targeting concentration. […]

Row | Compound | droplet size of cloudy emulsion
1 | CCCCCCCCCCCC(=O)OCC(O)CO (stereo not drawn) [Glyceryl Laurate] | over 200 nm
2 | CCCCCCCCCCCCCCCCCC(=O)OCC(O)CO.O=C(O)CC(O)(CC(=O)O)C(=O)O (stereo not drawn) [Glyceryl Stearate Citrate] | over 200 nm
3 | PolyGlyceryl 3-Oleate | over 200 nm
